Test results as given in patent publication US20070154905A1.
These are yes or no findings as the source states them, for the method shown.

Columns and labels:
cyclin D [1] = assay: yeast two-hybrid, β-galactosidase expression
lamin [2] = assay: yeast two-hybrid, β-galactosidase expression
lamin [3] = assay: yeast two-hybrid, β-galactosidase filter assay
cyclin D [4] = assay: yeast two-hybrid, β-gal filter assay (FIG. 5)
lamin [5] = assay: yeast two-hybrid, β-gal filter assay (FIG. 5)
lamin [6] = assay: yeast two-hybrid, β-galactosidase test (FIG. 1); lamin is named as a negative control in paragraph 206
cyclin D [7] = assay: yeast two-hybrid, β-galactosidase test (FIG. 1); cyclin D is named as a negative control in paragraph 206

Binder	binding (cyclin D [1])	binding (lamin [2])	binding (lamin [3])	binding (cyclin D [4])	binding (lamin [5])	binding (lamin [6])	binding (cyclin D [7])
MORT-1-binding protein of Example 2 (product of the two cDNA clones from the human B-cell library) (protein, UniProt Q15628 1-312, looked up) MAAGQNGHEEWVGSAYLFVESSLDKVVLSDAYAHPQQKVAVYRALQAALAESGGSPDVLQMLKIHRSDPQLIVQLRFCGRQPCGRFLRAYREGALRAALQRSLAAALAQHSVPLQLELRAGAERLDALLADEERCLSCILAQQPDRLRDEELAELEDALRNLKCGSGARGGDGEVASAPLQPPVPSLSEVKPPPPPPPAQTFLFQGQPVVNRPLSLKDQQTFARSVGLKWRKVGRSLQRGCRALRDPALDSLAYEYEREGLYEQAFQLLRRFVQAEGRRATLQRLVEALEENELTSLAEDLLGLTDPNGGLA	no binding	no binding					
MACH (construct with the full-length MACH cDNA) (protein) MDFSRNLYDIGEQLDSEDLASLKFLSLDYIPQRKQEPIKDALMLFQRLQEKRMLEESNLSFLKELLFRINRLDLLITYLNTRKEEMERELQTPGRAQISAYRVMLYQISEEVSRSELRSFKFLLQEEISKCKLDDDMNLLDIFIEMEKRVILGEGKLDILKRVCAQINKSLLKIINDYEEFSKERSSSLEGSPDEFSNDFGQSLPNEKQTSGILSDHQQSQFCKSTGESAQTSQH			no binding (tested: no color within 24 hrs)				
MACHβ1 (ORF-B of MACH) (protein) MDFSRNLYDIGEQLDSEDLASLKFLSLDYIPQRKQEPIKDALMLFQRLQEKRMLEESNLSFLKELLFRINRLDLLITYLNTRKEEMERELQTPGRAQISAYRVMLYQISEEVSRSELRSFKFLLQEEISKCKLDDDMNLLDIFIEMEKRVILGEGKLDILKRVCAQINKSLLKIINDYEEFSKERSSSLEGSPDEFSNDFGQSLPNEKQTSGILSDHQQSQFCKSTGESAQTSQH			no binding (tested: no color within 24 hrs)	no binding	no binding		
MORT-1 protein (full-length) (protein) VNQAPECRFGGGILGPLGKRRDLARASEPRTEGARRAGPQPRPLADPAMDPFLVLLHSVSSSLSSSELTELKFLCLGRVVKRKLERVQSGLDLFSMLLEQNDLEPGHTELLRELLASLRRHDLLRRVDDFEAGAAAGAAPGEEDLCAAFNVICDNVGKDWRRLARQLKVSDTKIDSIEDRYPRNLTERVRESLRIWKNTEKENATVAHLVGALRSCQMNLVADLVQEVQQARDLQNRSGAMSPMSWNSDASTSEAS				no binding	no binding	no binding	no binding
